No constants are given. Whether binding was seen depends on the method and setting. In cells and extracts the contact can be indirect. Some entries that bind do so weakly or less than the wild type.
Target: IκBα, endogenous (mouse (endogenous in brain tissue)) (UniProt Q9Z1E3)
Assay: co-IP; endogenous proteins, lysates prepared from brain tissue; immunoblot

Sequences of proteins named here, by UniProt entry; tags and fusion partners are left off.
UniProt Q9Z1E3: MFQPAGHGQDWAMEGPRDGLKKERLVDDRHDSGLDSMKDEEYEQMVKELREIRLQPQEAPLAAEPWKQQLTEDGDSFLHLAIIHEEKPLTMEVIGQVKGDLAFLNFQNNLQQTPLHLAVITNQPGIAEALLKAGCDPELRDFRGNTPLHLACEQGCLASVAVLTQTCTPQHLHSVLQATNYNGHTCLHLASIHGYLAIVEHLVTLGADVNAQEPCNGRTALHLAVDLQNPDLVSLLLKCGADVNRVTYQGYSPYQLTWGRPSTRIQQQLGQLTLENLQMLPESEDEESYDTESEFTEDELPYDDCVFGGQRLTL

binding: binds
B1: Tripartite motif-containing 67 (TRIM67), endogenous (protein, UniProt Q505D9 1-768)
chain: MEEELKCPVCGSLFREPIILPCSHNVCLPCARTIAVQTPDGEQHLPPPLLLSRGAAAAATPPDQDAAAGATSGGAGANTAGGLGGGATGGGDHADKLSLYSETDSGYGSYTPSLKSPNGVRVLPMVPAPPGSSAAAARGAACSSLCSSSSSITCPQCHRSASLDHRGLRGFQRNRLLEGIVQRYQQGRGVVPGAAAAPAVAICQLCDRTPPEPAATLCEQCDVLYCATCQLKCHPSRGPFAKHRLVQPPPPPTPPEATPAVTGTSTASSAGGCRSPGGAGASAPRKFPTCPEHEMENYSMYCVSCRSPVCYMCLEEGRHSKHEVKPLGATWKQHKAQLSQALNGVSDKAKEAKEFLVQLKNILQQIQENGLDYEACLVAQCDALVDALTRQKAKLLTKVTKEREHKLKMVWDQINHCTLKLRQSTGLMEYCLEVIKEDDPSGFLQISDALIKRVQTSQEQWVKGALEPKVSAEFDLTLDSEPLLQAIHQLDFVQMKLPPVPLLQLEKCCTRNNSVTLAWRTPPFTHSPAEGYILELDDGDGGQFREVYVGKETLCTIDGLHFNSTYNARVKAFNSSGVGPYSKTVVLQTSDVAWFTFDPNSGHRDIILSNDNQTATCSSYDDRVVLGTAAFSKGVHYWELHVDRYDNHPDPAFGVARASVVKDMMLGKDDKAWAMYVDNNRSWFMHCNSHTNRTEGGVCKGATVGVLLDLNKHTLTFFINGQQQGPTAFSHVDGVFMPALSLNRNVQVTLHTGLEVPTNLGRPKLSGN

From publication PMC10226213
